Our source for the cell count values is PubChem BioAssay AID463183 (Sanford-Burnham Center for Chemical Genomics, 2010).

This assay is described as follows: hepatocyte lipid droplet accumulation inhibitors, confirmation, imaging, AML12 mouse hepatocytes, single concentration, high-content (AID 463183).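 Further: cells counted after overnight compound exposure.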 The conditions noted are these: BODIPY lipid droplet imaging, measured here: cell count, cytotoxicity, at 5.2 µM, droplets induced with 100 µM oleic acid.

The list shows a part of the results. The main result of the screen is listed elsewhere. These columns were measured beside it and carry no call. Most of these compounds were active or inconclusive in the main read-out, so they are no random draw.

As to `CCN(CC(=O)Nc1ccccc1C(F)(F)F)C(=O)c1cc(-c2cccs2)nn1-c1ccccc1`, the cell count came to 1660 cells.

`CCOc1ccc(CCNC(=O)Cn2nc(C)n3cccc3c2=O)cc1OCC` returned a cell count of 1560 cells.

In turn, `O=C(Nc1nc(-c2ccccc2)cs1)C1CCCCN1S(=O)(=O)c1ccc(Cl)cc1` (stereo unspecified) displayed a cell count of 1600 cells.

Regarding `Cc1cccc(NC(=O)N2CCC(C(=O)c3ccc(F)cc3)CC2)c1`, the cell count came to 1570 cells.

`COc1ccc(N=C2C(=Nc3ccc(OC)cc3)N(c3ccc(OC)cc3)C(=S)N2C(=O)c2ccc(OC)cc2)cc1` gave a cell count of 1580 cells.

As to `CC(C)C(C)NC(=O)CSc1nc2scc(-c3ccco3)c2c(=O)n1-c1ccccc1` (stereo unspecified), the cell count came to 1590 cells.

For `CCOc1ccc(CN(C)C(=O)CNC(=O)c2ccc3ccccc3c2)cc1OC`, the cell count came to 1570 cells.

For the molecule `Cc1ccc(C2=NC3(CCCCC3)N=C2SCC(=O)Nc2ccc3c(c2)OCCO3)cc1`, the cell count came to 1620 cells.

For the molecule `COc1ccc(C(=O)OC(C)C(=O)NC(C)CCc2ccccc2)cc1OC` (stereo unspecified), the cell count was 1540 cells.

The molecule `Cc1cccc(N(Cc2cc(=O)[nH]c3ccccc23)C(=O)CCl)c1` showed a cell count of 1580 cells.

In the case of `Cc1ccc(NC(=O)Cc2ccc3c(c2)CCCC3)cc1C`, the cell count came to 1520 cells.

For the molecule `CCCCc1ccc(NC(=O)CSc2nc3ncccc3[nH]2)cc1`, the cell count is 1540 cells.

`COc1ccc(CCn2ccc(O)c(Cc3ccc(Cl)cc3)c2=O)cc1OC` displayed a cell count of 1570 cells.

`CCOC(=O)C(NC(=O)c1ccccc1)(OCc1ccccc1)C(F)(F)F` (stereo unspecified) yielded a cell count of 1580 cells.

In turn, `COc1ccc(C(=O)CCC(=O)NCCc2c[nH]c3ccccc23)cc1OC` came in with a cell count of 1540 cells.

Take `CCCC(=O)Nc1c2c(nc3ccccc13)N(c1ccccc1)CC2`: the cell count came to 1590 cells.

`COC(=O)c1cc(-c2ccc(OC)cc2)nc2nc(SC)[nH]c(=O)c12` showed a cell count of 1630 cells.

Consider `CCOc1ccccc1NC(=O)CSc1nnc(Cn2c(=O)sc3ccccc32)n1C`, for which the cell count is 1610 cells.

The molecule `COc1ccc(S(=O)(=O)N(c2onc(C)c2Cl)S(=O)(=O)c2ccc(OC)cc2)cc1` came in with a cell count of 1620 cells.

The molecule `COc1ccc(OC)c(CCNC(=O)C(C)n2nc(C)c3c(C)n(-c4ccc(C)cc4)nc3c2=O)c1` (stereo unspecified) returned a cell count of 1550 cells.

Consider `Cc1ccc(C(=O)CC2(O)C(=O)N(CCc3ccccc3)c3ccc(Br)cc32)o1` (stereo unspecified), for which the cell count turned out to be 1670 cells.

On to `CCOc1ccccc1N=Nc1c(C)[nH]n(-c2ccccc2)c1=O`, for which the cell count stood at 1590 cells.

As for `COc1ccc(Br)cc1CNC(=O)CCCc1cn(C)c2ccccc12`, the cell count worked out at 1580 cells.

Take `COc1ccc(C2(c3ccc(OC)cc3)NC(=O)N(CC(=O)Nc3ccccc3C)C2=O)cc1`: the cell count turned out to be 1590 cells.

Consider `CCOc1ccc(CCNC(=O)c2c(C)nn(-c3ccccc3)c2Cl)cc1OCC`, for which the cell count amounted to 1580 cells.

The molecule `COc1ccccc1/C=C/C(=O)NCC(=O)N/N=C/c1cc(Br)ccc1OC` came in with a cell count of 1590 cells.

As to `O=C(COC(=O)COc1ccc(Cl)cc1Cl)Nc1cccnc1Cl`, the cell count was found to be 1650 cells.

Take `Clc1ccccc1CN(Cc1ccco1)Cc1nnnn1C1CCCC1`: the cell count amounted to 1590 cells.

On to `CCCN1C(=O)/C(=C2/C=Cc3ccccc3N2CC)SC1=S`, for which the cell count stood at 1690 cells.

Consider `CCOC(=O)C1=C(C)n2c(s/c(=C3\C(=O)Nc4ccccc43)c2=O)=NC1c1ccc(OC)cc1` (stereo unspecified), for which the cell count turned out to be 1590 cells.

The molecule `COC(=O)Cn1c(O)c(N=NC(=O)CNC(=O)COc2cccc(C)c2)c2ccccc21` showed a cell count of 1570 cells.

As for `Cc1c(Cl)cccc1N(CC(=O)NC(C)c1ccccc1)S(C)(=O)=O` (stereo unspecified), the cell count was 1640 cells.

Molecule `O=C1c2ccccc2C2=Nc3ccccc3SC(c3cccc(F)c3)C12` (stereo unspecified) showed a cell count of 1730 cells.

On to `c1ccc(Oc2cccc(CN3CCCCC3)c2)cc1`, for which the cell count stood at 1570 cells.

The molecule `N#C/C(=C\c1ccc(-c2ccccc2[N+](=O)[O-])o1)C(=O)Nc1nc(-c2cccs2)cs1` yielded a cell count of 1630 cells.

Consider `CCOc1ccc(CCNC(=O)CN2C(=O)NC(CCSC)C2=O)cc1OCC` (stereo unspecified), for which the cell count is 1590 cells.
